We go through 38 substances from US11713339B2 (UNIVERSITY OF WARWICK, priority 2018, dated 2023).

Several values for one entry are separate records, joined by “and”; a condition that tells them apart may be missing. Equal entries are not always repeated. *: point of attachment. Cbz = O=C(OCc1ccccc1)*; Boc = CC(C)(C)OC(=O)*; OBn = c1ccc(CO*)cc1; Bn = c1ccc(C*)cc1

One data set in a line: peptide synthesis. The conditions noted are these: for isolated yield / isolated mass: whole synthesis; for isolated mass: scale 0.05 mmol; for cyclisation yield: cyclisation step.
The nature of data set [1]: general procedure: solution-phase peptide synthesis; 2-chlorotrityl; EDC·HCl/HOBt or HATU/DIPEA for chain assembly; DEPBT, PyBOP, HATU or T3P for cyc. Conditions: whole synthesis.

For Cyclo(Ser-Met-Ala-Trp-GOx-Gly-Leu), in the data set “peptide synthesis” (TFA salt), the isolated yield turned out to be 13% and the isolated mass stood at 6.2 mg.

In the case of Cbz-Leu-Ala-GOx-Ala-Tyr(Bn)-OBn, in the data set “peptide synthesis” (coupling step), the step yield was 55%.

H-Leu-Ala-Gly-Ala-Tyr-OH came in with a step yield in the data set “peptide synthesis” (late stage modification step) of 64%.

Turning to Cyclo(Trp-Leu-AOx-Gly), the cyclisation yield in the data set “peptide synthesis” is 50% and 49%.

Cbz-Trp-Leu-GOx-Gly-OBn returned a step yield in the data set “peptide synthesis” (coupling step) of 44%.

In turn, “H-Phe-Glu(^tBu)-GAz(Boc)-Thr(^tBu)-Gly-OH” had a crude yield in data set [1] of 68%.

In the data set “peptide synthesis” (coupling step), “Fmoc-Cys(Trt)-Asn(Trt)-GOx-Arg(Pbf)-Cys(Trt)-OtBu” showed a step yield of 81%.

Cbz-D-Pro-Leu-GAz(Boc)-Gly-OBn returned a step yield in “peptide synthesis” (coupling step) of 62%.

Regarding H-Ala-GOx-Ala-Tyr-Leu-OH, the step yield in “peptide synthesis” (late stage modification step) is reported as greater than 99%.

For the substance “Cyclo-(Phe-Glu(^tBu)-GAz(Boc)-Thr(^tBu)-Gly)”, the cyclisation yield in “peptide synthesis” is given as 73%.

For H-Tyr-Leu-Ala-GOx-Ala-OH, the step yield in “peptide synthesis” (late stage modification step) is given as greater than 99%.

In “peptide synthesis” (coupling step), Cbz-LAGAY(Bn)-OBn registered a step yield of 63%.

Consider Cyclo(Leu-GOx-Gly-Trp(Boc)), for which the isolated yield in the data set “peptide synthesis” (over the complete reaction sequence, scale 0.10 mmol) was 39%.

With Cyclo-((D)Pro-Leu-GAz(Boc)-Gly), the cyclisation yield in the data set “peptide synthesis” is recorded as 79%.

Cbz-Ala-GOx-Ala-Tyr(Bn)-Leu-OBn: the step yield in “peptide synthesis” (coupling step) is on record as 83%.

With Cyclo(Met-Ala-Trp-GOx-Gly-Leu), in “peptide synthesis” (TFA salt), the isolated yield was 7% and the isolated mass turned out to be 2.5 mg.

As for NO2-GOx-Ala-Tyr(Bn)-Leu-OBn, the step yield in the data set “peptide synthesis” (coupling step) stood at 48%.

In “peptide synthesis”, Cyclo(Ala-GOx-Ala-Tyr-Leu) registered a cyclisation yield of 54%.

Cyclo(Ala-Trp-GOx-Gly-Leu): in “peptide synthesis” (TFA salt), the isolated yield is reported as 13% and the isolated mass worked out at 2.4 mg.

As for Cyclo(Trp-Leu-GOx-Gly), the cyclisation yield in the data set “peptide synthesis” was determined as 65%.

In the data set “peptide synthesis” (coupling step), Cbz-Tyr(Bn)-Leu-Ala-GOx-Ala-OBn gave a step yield of 48%.

Take “Cyclo-(Leu-Tyr(^tBu)-Val-GAz(Boc)-Thr(^tBu)-Phe)”: the cyclisation yield in the data set “peptide synthesis” is listed as 57%.

Substance H-Ala-Gly-Ala-Tyr-Leu-OH had a step yield in the data set “peptide synthesis” (late stage modification step) of 65%.

Turning to “Fmoc-Tyr(^tBu)-Val-GAz(Boc)-Thr(^tBu)-Phe-OBn”, the step yield in the data set “peptide synthesis” (coupling step) came to 73%.

Consider cyclo(AGAYL), for which the cyclisation yield in “peptide synthesis” is 42%.

In the data set “peptide synthesis” (coupling step), Boc-Ala-GOx-Ala-Tyr(Bn)-OBn returned a step yield of 59%.

Boc-GAY(Bn)L-OBn: the step yield in “peptide synthesis” (coupling step) was 84%.

The substance H-GOx-Ala-Tyr-Leu-Ala-OH gave a step yield in “peptide synthesis” (late stage modification step) of 95%.

Take “Cbz-Leu-Tyr(^tBu)-Val-GAz(Boc)-Thr(^tBu)-Phe-OBn”: the step yield in the data set “peptide synthesis” (coupling step) was 82%.

The substance Cbz-WLGG-OBn yielded a step yield in the data set “peptide synthesis” (coupling step) of 88%.

Take cyclo(WLGG): in “peptide synthesis”, the cyclisation yield came out at 15%.

Turning to Cbz-AGAY(Bn)L-OBn, in “peptide synthesis” (coupling step), the step yield was 93%.

As to Boc-Leu-Ala-GOx-Ala-OBn, the step yield in the data set “peptide synthesis” (coupling step) is reported as 74%.

Substance Cbz-GOx-Ala-Tyr(Bn)-Leu-Ala-OBn had a step yield in “peptide synthesis” (coupling step) of 68%.

As to “Fmoc-Asn(Trt)-GOx-Arg(Pbf)-Cys(Trt)-OtBu”, the step yield in “peptide synthesis” (coupling step) came out at 78%.

Fmoc-Val-GAz(Boc)-Thr(^tBu)-Phe-OBn had a step yield in “peptide synthesis” (coupling step) of 74%.

The substance Cyclo(H-CVs-Asn-GOx-Arg-CVs-OH) gave an oxidative folding yield in “peptide synthesis” (oxidative folding step, over two steps) of 32% yield over two steps.

In turn, Boc-AGAY(Bn)-OBn yielded a step yield in “peptide synthesis” (coupling step) of 73%.
